Assay results reported in the supplement of paper PMC10849652.
Some of the results follow.

Chains of the proteins cited; added tags and fusions are not shown. Lines headed by an entry give the natural chain unless they say otherwise; changes in a name come on top.
UniProt Q96ME1: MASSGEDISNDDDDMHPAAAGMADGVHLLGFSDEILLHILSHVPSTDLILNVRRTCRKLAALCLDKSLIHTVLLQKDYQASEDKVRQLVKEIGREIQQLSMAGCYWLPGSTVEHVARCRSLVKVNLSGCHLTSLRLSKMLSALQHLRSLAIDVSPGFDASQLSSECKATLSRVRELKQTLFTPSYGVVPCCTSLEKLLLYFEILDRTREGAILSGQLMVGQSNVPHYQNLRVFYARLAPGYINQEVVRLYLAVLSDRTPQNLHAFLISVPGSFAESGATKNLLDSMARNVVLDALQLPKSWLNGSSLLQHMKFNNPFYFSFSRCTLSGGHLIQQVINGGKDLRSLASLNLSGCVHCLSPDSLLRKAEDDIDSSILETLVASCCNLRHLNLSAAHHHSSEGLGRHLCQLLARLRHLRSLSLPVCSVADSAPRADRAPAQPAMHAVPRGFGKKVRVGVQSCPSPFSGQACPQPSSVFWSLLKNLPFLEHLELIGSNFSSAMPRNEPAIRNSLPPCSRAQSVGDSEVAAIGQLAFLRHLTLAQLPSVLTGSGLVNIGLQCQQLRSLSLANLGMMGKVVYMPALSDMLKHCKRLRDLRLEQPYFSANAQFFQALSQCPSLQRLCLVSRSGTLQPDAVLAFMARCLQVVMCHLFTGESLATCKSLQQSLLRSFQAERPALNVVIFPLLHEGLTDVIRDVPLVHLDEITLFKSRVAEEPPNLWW
UniProt Q9Y613: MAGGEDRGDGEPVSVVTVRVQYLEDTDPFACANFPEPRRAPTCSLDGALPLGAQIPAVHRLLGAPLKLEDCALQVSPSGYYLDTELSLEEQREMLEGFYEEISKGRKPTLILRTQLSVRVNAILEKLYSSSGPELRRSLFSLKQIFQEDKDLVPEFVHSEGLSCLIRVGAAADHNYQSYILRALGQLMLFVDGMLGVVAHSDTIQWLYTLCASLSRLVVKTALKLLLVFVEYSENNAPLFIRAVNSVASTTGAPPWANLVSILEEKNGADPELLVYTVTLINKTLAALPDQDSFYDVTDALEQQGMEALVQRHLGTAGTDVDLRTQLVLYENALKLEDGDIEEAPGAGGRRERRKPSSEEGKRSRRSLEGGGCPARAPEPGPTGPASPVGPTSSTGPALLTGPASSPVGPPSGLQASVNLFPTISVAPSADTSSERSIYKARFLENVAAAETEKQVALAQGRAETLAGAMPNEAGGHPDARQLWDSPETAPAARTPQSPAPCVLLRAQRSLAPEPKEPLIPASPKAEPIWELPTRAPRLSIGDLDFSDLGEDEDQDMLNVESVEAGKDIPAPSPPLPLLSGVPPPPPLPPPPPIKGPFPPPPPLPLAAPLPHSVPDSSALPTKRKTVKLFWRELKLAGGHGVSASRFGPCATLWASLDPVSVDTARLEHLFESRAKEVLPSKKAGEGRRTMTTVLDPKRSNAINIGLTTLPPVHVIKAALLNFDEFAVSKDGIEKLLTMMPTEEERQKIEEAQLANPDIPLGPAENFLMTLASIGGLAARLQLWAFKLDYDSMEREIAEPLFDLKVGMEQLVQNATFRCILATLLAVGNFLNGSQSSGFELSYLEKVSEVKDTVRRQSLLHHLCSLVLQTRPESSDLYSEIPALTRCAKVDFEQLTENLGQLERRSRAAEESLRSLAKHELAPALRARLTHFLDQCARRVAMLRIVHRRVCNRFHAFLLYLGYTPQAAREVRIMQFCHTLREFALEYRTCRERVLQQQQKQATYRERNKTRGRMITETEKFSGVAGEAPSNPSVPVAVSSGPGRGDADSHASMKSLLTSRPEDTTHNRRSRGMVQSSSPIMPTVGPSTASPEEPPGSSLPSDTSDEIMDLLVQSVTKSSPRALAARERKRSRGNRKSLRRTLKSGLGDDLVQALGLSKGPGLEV
UniProt P98173: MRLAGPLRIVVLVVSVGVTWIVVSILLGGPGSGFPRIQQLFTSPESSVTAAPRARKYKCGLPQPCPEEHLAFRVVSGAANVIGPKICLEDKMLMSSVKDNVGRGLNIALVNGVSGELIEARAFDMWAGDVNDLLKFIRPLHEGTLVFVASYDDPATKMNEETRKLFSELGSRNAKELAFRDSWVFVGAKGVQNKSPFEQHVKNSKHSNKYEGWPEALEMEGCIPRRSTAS
UniProt Q8N3X1: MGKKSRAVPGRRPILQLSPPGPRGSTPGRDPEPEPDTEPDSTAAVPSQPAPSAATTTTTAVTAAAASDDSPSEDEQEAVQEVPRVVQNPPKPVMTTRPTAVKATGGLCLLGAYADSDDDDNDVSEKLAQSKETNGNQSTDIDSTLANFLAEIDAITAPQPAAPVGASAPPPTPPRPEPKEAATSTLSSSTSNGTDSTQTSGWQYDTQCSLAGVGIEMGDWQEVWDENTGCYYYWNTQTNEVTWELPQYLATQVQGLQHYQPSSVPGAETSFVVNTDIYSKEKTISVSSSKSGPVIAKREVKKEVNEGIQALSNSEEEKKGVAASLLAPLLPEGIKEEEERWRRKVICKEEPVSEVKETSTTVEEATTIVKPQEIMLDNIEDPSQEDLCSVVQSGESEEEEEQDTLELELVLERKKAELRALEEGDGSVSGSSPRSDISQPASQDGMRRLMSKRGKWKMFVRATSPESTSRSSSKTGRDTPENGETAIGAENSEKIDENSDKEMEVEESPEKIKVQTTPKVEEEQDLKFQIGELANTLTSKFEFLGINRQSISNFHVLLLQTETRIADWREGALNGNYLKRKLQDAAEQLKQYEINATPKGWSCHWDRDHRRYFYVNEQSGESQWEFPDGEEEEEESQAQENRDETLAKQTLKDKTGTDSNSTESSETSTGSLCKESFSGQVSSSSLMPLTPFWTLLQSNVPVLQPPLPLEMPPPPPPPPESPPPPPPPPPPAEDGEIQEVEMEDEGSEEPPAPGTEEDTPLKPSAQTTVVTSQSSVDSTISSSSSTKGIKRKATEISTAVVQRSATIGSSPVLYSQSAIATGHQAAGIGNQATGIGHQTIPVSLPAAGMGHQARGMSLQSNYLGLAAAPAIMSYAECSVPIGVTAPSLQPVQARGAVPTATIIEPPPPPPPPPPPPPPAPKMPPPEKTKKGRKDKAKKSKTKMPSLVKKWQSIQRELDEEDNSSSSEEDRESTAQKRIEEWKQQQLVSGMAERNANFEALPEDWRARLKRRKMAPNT
UniProt Q8N0W3: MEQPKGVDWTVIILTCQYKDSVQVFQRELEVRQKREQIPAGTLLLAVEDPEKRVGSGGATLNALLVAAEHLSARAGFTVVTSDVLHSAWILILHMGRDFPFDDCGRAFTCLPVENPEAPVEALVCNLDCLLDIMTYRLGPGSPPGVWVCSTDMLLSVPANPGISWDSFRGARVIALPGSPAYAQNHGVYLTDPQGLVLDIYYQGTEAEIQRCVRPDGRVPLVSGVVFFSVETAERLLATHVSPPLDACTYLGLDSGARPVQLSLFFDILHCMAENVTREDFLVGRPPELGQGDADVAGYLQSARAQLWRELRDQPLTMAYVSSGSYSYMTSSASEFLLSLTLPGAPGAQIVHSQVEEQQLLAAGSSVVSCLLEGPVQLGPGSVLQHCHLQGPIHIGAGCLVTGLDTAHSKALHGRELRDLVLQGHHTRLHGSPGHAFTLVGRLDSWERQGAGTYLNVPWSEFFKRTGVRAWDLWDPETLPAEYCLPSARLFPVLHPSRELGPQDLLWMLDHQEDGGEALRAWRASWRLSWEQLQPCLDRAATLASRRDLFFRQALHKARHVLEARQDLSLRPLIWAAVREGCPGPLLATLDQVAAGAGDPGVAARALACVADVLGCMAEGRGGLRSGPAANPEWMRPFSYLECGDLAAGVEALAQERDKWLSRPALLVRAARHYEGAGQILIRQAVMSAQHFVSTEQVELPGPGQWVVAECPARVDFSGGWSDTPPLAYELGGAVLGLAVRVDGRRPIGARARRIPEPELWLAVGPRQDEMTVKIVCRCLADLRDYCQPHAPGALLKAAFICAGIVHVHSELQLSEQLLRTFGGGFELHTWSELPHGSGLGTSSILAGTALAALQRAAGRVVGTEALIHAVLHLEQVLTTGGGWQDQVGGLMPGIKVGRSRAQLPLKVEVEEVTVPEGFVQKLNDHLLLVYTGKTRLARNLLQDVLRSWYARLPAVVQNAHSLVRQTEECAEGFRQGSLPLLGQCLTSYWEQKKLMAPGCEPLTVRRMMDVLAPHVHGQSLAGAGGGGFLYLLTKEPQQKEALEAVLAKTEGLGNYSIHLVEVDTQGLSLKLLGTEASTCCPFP
UniProt Q9NSD9: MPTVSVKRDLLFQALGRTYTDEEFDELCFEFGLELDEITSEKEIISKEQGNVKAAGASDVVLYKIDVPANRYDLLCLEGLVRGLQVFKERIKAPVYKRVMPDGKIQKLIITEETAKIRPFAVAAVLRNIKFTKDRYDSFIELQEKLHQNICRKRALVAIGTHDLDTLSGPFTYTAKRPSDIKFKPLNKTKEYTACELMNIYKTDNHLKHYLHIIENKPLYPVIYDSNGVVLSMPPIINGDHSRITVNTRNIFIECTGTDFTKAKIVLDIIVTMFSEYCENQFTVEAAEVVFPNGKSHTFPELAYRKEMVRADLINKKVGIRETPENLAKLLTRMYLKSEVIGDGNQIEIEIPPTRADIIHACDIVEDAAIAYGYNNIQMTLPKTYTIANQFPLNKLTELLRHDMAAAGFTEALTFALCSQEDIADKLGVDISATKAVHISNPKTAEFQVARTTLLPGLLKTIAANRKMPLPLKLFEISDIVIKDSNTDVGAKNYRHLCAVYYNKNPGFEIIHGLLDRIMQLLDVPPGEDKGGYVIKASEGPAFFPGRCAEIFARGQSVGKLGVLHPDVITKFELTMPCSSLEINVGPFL
UniProt Q5XUX1: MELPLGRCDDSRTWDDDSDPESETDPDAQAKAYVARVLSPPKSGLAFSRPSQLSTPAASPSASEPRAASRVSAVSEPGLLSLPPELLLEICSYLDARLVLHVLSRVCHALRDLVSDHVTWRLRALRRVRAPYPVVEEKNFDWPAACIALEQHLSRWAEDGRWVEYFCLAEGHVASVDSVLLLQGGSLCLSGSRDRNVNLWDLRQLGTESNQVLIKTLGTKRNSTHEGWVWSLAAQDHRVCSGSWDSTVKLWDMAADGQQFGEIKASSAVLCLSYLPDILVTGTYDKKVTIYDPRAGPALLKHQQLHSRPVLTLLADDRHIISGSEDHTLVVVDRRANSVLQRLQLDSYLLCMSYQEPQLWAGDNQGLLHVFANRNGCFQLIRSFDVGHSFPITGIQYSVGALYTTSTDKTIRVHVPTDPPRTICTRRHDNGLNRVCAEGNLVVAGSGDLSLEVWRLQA
UniProt O95684: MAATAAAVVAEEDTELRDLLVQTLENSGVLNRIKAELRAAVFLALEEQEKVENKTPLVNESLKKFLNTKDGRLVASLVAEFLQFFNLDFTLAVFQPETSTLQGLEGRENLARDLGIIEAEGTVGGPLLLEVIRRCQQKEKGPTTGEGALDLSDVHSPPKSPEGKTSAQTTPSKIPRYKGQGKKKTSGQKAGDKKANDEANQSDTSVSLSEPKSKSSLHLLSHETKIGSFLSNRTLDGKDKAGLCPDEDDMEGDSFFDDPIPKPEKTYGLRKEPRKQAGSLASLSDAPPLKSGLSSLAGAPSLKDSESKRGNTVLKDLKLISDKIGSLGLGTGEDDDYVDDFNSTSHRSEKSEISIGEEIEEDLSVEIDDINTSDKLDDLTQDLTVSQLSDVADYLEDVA
UniProt P12318: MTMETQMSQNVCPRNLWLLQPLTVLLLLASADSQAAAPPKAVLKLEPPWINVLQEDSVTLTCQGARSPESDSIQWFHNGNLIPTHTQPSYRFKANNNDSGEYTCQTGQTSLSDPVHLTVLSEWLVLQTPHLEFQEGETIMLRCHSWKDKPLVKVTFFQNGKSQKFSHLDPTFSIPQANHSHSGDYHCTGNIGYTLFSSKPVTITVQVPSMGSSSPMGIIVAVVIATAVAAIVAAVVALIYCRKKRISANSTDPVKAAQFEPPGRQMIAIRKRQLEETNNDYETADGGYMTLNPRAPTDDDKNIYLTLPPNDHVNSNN
UniProt Q96CP2: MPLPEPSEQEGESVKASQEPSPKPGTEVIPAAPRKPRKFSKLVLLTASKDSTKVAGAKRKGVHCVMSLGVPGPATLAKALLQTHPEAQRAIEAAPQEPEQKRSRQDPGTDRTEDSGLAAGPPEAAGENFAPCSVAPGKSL
UniProt P39748, whole entry, looked up: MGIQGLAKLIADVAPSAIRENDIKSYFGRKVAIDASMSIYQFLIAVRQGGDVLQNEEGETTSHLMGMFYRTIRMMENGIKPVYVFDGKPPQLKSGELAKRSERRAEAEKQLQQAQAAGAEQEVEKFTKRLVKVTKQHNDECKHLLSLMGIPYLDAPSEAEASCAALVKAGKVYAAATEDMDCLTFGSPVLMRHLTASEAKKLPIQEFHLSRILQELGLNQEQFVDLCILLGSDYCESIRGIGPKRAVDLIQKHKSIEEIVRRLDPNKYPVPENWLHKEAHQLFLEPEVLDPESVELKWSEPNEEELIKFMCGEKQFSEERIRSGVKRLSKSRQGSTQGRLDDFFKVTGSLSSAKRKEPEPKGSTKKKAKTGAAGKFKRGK

Key:
Experiment in all cases: log2 fold change, soluble protein after heating vs DMSO (PISA); higher = thermal stabilisation; K562 cells, 10 uM, 30 min; active = over 0.2 and 3.5 SD of the protein, either way, in both replicates (recomputed)
[1] = compound: CC1=C(C=C(C=C1)NC(=O)C2=CC(=CC=C2)C(C)(C)C#N)NC3=CC4=C(C=C3)N=CN(C4=O)C
In short: (§1)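 For each measurement, 10 μM compound was applied for 30 min to K562 cells at 2×10^6 cells/mL. Aliquots were heated for 3 min across 48°C-58°C, pooled, and extracted in PBS with 0.5% NP-40 at 4°C; the supernatant after 21,000xg for 90 min was soluble protein. This was quantified by TMTpro 16plex LC-MS/MS with channel sums equalised, and thermal stability was reported relative to control samples from duplicates, on a log2 fold-change scale.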

[2] = compound: CC1=C(C=C(C=C1)NC(=O)C2=CC(=CC=C2)N(C)C)NC(=O)C3=CC=C(C=C3)O
In short: as §1

[3] = compound: CC1=CC=C(C=C1)SC2=C3C=C(SC3=CN=C2)C(=O)N
In short: as §1

[4] = compound: CC1=NC(=CC=C1)C2=C(N=C(N2)C(C)(C)C)C3=CC4=NC=CN=C4C=C3
In short: as §1

Nexturastat A = compound: CCCCN(Cc1ccc(C(=O)NO)cc1)C(=O)Nc1ccccc1 [Nexturastat A]
In short: as §1

vemurafenib = compound: CCCS(=O)(=O)Nc1ccc(F)c(C(=O)c2c[nH]c3ncc(-c4ccc(Cl)cc4)cc23)c1F [vemurafenib]
In short: as §1

[5] = compound: CCCS(=O)(=O)Nc1ccc(F)c(C(=O)c2c[nH]c3ncc(Cl)cc23)c1F
In short: as §1

[6] = compound: CCCc1cc(C)[nH]c(=O)c1CNC(=O)c1cc(-c2ccnc(N3CCN(C)CC3)c2)cc2c1cnn2C(C)C
In short: as §1

givinostat = compound: CCN(CC)Cc1ccc2cc(COC(=O)Nc3ccc(C(=O)NO)cc3)ccc2c1 [givinostat]
In short: as §1

barasertib = compound: CCN(CCCOc1ccc2c(Nc3cc(CC(=O)Nc4cccc(F)c4)[nH]n3)ncnc2c1)CCOP(=O)(O)O [barasertib]
In short: as §1

Row | Target | log2 fold change [1] | log2 fold change [2] | log2 fold change [3] | log2 fold change [4] | log2 fold change (Nexturastat A) | log2 fold change (vemurafenib) | log2 fold change [5] | log2 fold change [6] | log2 fold change (givinostat) | log2 fold change (barasertib)
1 | FBLL1 (UniProt A6NHQ2) | inactive: 0.013 | inactive: -0.026 | inactive: -0.188 | inactive: -0.003 | inactive: 0.422 | inactive: -0.069 | inactive: 0.024 | inactive: 0.096 | inactive: 0.122 | inactive: -0.069
2 | FKBP5 (UniProt Q13451) | inactive: -0.052 | inactive: -0.039 | inactive: 0.069 | inactive: 0.017 | inactive: 0.109 | inactive: 0.061 | inactive: 0.134 | inactive: 0.058 | inactive: 0.115 | inactive: 0.095
3 | FLNC (UniProt Q14315) | inactive: 0.016 | inactive: -0.028 | inactive: -0.004 | inactive: -0.001 | inactive: -0.035 | inactive: 0.008 | inactive: 0.02 | inactive: -0.011 | inactive: 0.002 | inactive: 0.012
4 | FN1 isoform 1 (UniProt P02751) | inactive: -0.026 | inactive: 0.057 | inactive: 0.052 | inactive: 0.157 | inactive: 0.021 | inactive: 0.064 | inactive: -0.042 | inactive: -0.173 | inactive: -0.065 | inactive: 0.038
5 | FHL2 (UniProt Q14192) | inactive: -0.011 | inactive: -0.005 | inactive: -0.027 | inactive: -0.019 | inactive: 0.052 | inactive: -0.063 | inactive: -0.034 | inactive: -0.015 | inactive: -0.018 | inactive: -0.008
6 | FAM86B2 (UniProt P0C5J1) | inactive: -0.006 | – | – | – | – | – | – | – | – | –
7 | FBXL18 isoform 4 (UniProt Q96ME1) | inactive: 0.04 | inactive: -0.006 | inactive: 0.045 | inactive: 0.008 | inactive: -0.04 | inactive: 0.043 | inactive: 0.068 | inactive: -0.014 | inactive: 0.057 | inactive: 0.037
8 | FAM83D (UniProt Q9H4H8) | inactive: 0.008 | inactive: -0.029 | inactive: 0.028 | inactive: 0.018 | inactive: 0.102 | inactive: 0.041 | inactive: 0.097 | inactive: 0.016 | inactive: 0.103 | inactive: 0.128
9 | FAM210A (UniProt Q96ND0) | inactive: 0.054 | inactive: -0.059 | inactive: -0.031 | inactive: -0.056 | inactive: 0.008 | inactive: -0.021 | inactive: -0.029 | inactive: -0.003 | inactive: 0.056 | inactive: -0.015
10 | FNTA (UniProt P49354) | inactive: -0.035 | inactive: -0.009 | inactive: 0.048 | inactive: -0.011 | inactive: -0.063 | inactive: -0.045 | inactive: -0.047 | inactive: 0.007 | inactive: -0.052 | inactive: 0.007
11 | FAM234A (UniProt Q9H0X4) | inactive: 0.03 | inactive: 0.055 | inactive: -0.03 | inactive: 0.01 | inactive: -0.022 | inactive: -0.028 | inactive: -0.034 | inactive: 0.149 | inactive: 0.008 | inactive: -0.014
12 | FAU (UniProt P62861) | inactive: 0.01 | inactive: 0.036 | inactive: -0.038 | inactive: -0.07 | inactive: 0.128 | inactive: -0.154 | inactive: -0.062 | inactive: 0.095 | inactive: 0.035 | inactive: -0.071
13 | FBXO7 (UniProt Q9Y3I1) | inactive: -0.048 | inactive: -0.028 | inactive: 0.004 | inactive: -0.014 | inactive: 0.047 | inactive: 0.017 | inactive: -0.022 | inactive: -0.026 | inactive: 0.03 | inactive: 0.02
14 | FN3K (UniProt Q9H479) | inactive: 0.037 | inactive: -0.008 | inactive: 0.041 | inactive: 0.015 | inactive: -0.013 | inactive: 0.017 | inactive: 0.031 | inactive: 0.056 | inactive: -0.065 | inactive: -0.019
15 | FHOD1 (UniProt Q9Y613) | inactive: -0.288 | inactive: 0.073 | inactive: -0.063 | inactive: -0.09 | inactive: 0.365 | inactive: -0.002 | inactive: -0.134 | inactive: 0.132 | inactive: 0.024 | inactive: 0.044
16 | FAM3A (UniProt P98173) | inactive: -0.022 | inactive: 0.012 | inactive: -0.005 | inactive: 0.003 | active: -0.304 | inactive: 0.015 | inactive: 0.013 | inactive: -0.031 | inactive: -0.001 | inactive: 0.014
17 | FIS1 (UniProt Q9Y3D6) | inactive: -0.024 | inactive: 0.006 | inactive: 0 | inactive: 0 | inactive: -0.018 | inactive: 0.048 | inactive: -0.046 | inactive: -0.009 | inactive: -0.014 | inactive: -0.027
18 | FNBP4 isoform 2 (UniProt Q8N3X1) | inactive: -0.046 | inactive: 0.032 | inactive: -0.003 | inactive: -0.013 | inactive: -0.004 | inactive: -0.054 | inactive: -0.036 | inactive: -0.035 | inactive: 0.019 | inactive: -0.017
19 | FCSK isoform 2 (UniProt Q8N0W3) | inactive: -0.035 | inactive: 0.015 | inactive: 0.041 | inactive: 0.028 | inactive: -0.008 | inactive: 0.062 | inactive: 0.015 | inactive: -0.003 | inactive: 0.003 | inactive: 0.024
20 | FAM8A1 (UniProt Q9UBU6) | inactive: 0.033 | inactive: 0.063 | inactive: -0.086 | inactive: -0.003 | inactive: 0.088 | inactive: -0.078 | inactive: -0.046 | inactive: -0.151 | inactive: 0.097 | inactive: 0.031
21 | FARSB (UniProt Q9NSD9) | inactive: 0.036 | inactive: -0.029 | inactive: -0.003 | inactive: 0 | inactive: 0.002 | inactive: 0.02 | inactive: 0.045 | inactive: 0.017 | inactive: 0.026 | inactive: 0.027
22 | FAT3 isoform 1 (UniProt Q8TDW7) | inactive: 0.001 | inactive: 0.558 | inactive: 0.119 | inactive: 0.068 | inactive: 0.157 | inactive: -0.054 | inactive: -0.054 | inactive: -0.128 | inactive: 0.187 | inactive: -0.095
23 | FBXW9 (UniProt Q5XUX1) | inactive: -0.053 | inactive: 0.036 | inactive: 0.098 | inactive: -0.032 | inactive: 0.058 | inactive: -0.087 | inactive: 0.037 | inactive: -0.043 | inactive: -0.024 | inactive: 0.057
24 | FBL (UniProt P22087) | inactive: -0.039 | inactive: 0.062 | inactive: -0.146 | inactive: -0.077 | inactive: 0.243 | inactive: -0.11 | inactive: -0.058 | inactive: 0.165 | inactive: 0.138 | inactive: -0.106
25 | FGFR1OP (UniProt O95684) | inactive: 0.018 | inactive: 0.016 | inactive: 0.008 | inactive: -0.025 | inactive: 0.017 | inactive: -0.004 | inactive: 0.059 | inactive: 0.006 | inactive: 0.048 | inactive: -0.016
26 | FCGR2A (UniProt P12318) | inactive: -0.05 | inactive: 0.051 | inactive: -0.148 | inactive: 0.012 | inactive: 0.07 | inactive: 0.067 | inactive: 0.043 | inactive: -0.13 | inactive: -0.044 | inactive: 0.069
27 | FERMT3 (UniProt Q86UX7) | inactive: 0.019 | inactive: -0.024 | inactive: 0.037 | inactive: 0.054 | inactive: -0.013 | inactive: 0.036 | inactive: 0.083 | inactive: 0.03 | inactive: 0.048 | inactive: 0.019
28 | FLYWCH2 (UniProt Q96CP2) | inactive: -0.078 | inactive: 0.066 | inactive: 0.047 | inactive: 0.01 | inactive: -0.092 | inactive: 0.013 | inactive: 0.034 | inactive: 0.017 | inactive: -0.019 | inactive: -0.004
29 | FEN1 (UniProt P39748) | inactive: 0.018 | inactive: -0.08 | inactive: 0.045 | inactive: 0.057 | inactive: -0.194 | inactive: 0.121 | inactive: 0.022 | inactive: -0.03 | inactive: 0.096 | inactive: 0.088
30 | FCHO2 (UniProt Q0JRZ9) | inactive: -0.01 | inactive: -0.067 | inactive: 0.048 | inactive: 0.058 | inactive: 0.035 | inactive: 0.057 | inactive: 0.064 | inactive: 0.014 | inactive: 0.084 | inactive: -0.004

2 entries picked at random from the list so far:
Row | Target | log2 fold change [1] | log2 fold change [2] | log2 fold change [3] | log2 fold change [4] | log2 fold change (Nexturastat A) | log2 fold change (vemurafenib) | log2 fold change [5] | log2 fold change [6] | log2 fold change (givinostat) | log2 fold change (barasertib)
3 | FLNC (UniProt Q14315) | inactive: 0.016 | inactive: -0.028 | inactive: -0.004 | inactive: -0.001 | inactive: -0.035 | inactive: 0.008 | inactive: 0.02 | inactive: -0.011 | inactive: 0.002 | inactive: 0.012
2 | FKBP5 (UniProt Q13451) | inactive: -0.052 | inactive: -0.039 | inactive: 0.069 | inactive: 0.017 | inactive: 0.109 | inactive: 0.061 | inactive: 0.134 | inactive: 0.058 | inactive: 0.115 | inactive: 0.095
